These are yes or no findings as the source states them, for the method shown. For part of these data: In cells and extracts the contact can be indirect. Some results given as binding are weak or reduced against the parent protein; the word gives no strength. Sequences can lack the tags named with a protein. Values belong to the binder of their own block, whether it stands above or below them.
Key:
[1] = target: T1, C-terminal His6-tagged human Bak (residues 23–185;C166S) (human) (UniProt Q16611); assay: ITC; Pxt1 peptide (0.8 mM) titrated into 80 μM recombinant Bak; no detergent; performed as in ref. 27; both purified
T1 sequence: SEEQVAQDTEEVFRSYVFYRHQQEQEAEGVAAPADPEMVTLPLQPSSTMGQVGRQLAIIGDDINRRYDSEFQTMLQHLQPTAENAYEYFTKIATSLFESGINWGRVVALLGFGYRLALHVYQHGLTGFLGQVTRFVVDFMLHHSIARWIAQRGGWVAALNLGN

Amino acid sequences for entries named in this document (tags omitted). A change or cut given only in a name is not applied to a line headed by its entry.
UniProt Q8K459: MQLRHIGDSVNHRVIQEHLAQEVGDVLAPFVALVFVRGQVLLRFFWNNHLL

[2] = target: T1, C-terminal His6-tagged human Bak (residues 23–185;C166S) (human); assay: condition: only without BH3 peptide or without CHAPS; native gel or EMSA; 100 μM Bak incubated for 1 h without BH3 peptide or without CHAPS; both purified
[3] = target: T1, C-terminal His6-tagged human Bak (residues 23–185;C166S) (human); assay: condition: only without Pxt1 BH3 peptide or without CHAPS; SEC; 100 μM Bak without Pxt1 BH3 peptide or without CHAPS; Superdex 75 10/300 GL; both purified
[4] = target: T2, GFP-tagged full-length human Pxt1 (peroxisomal testis-specific 1) (human) (UniProt Q8NFP0); assay: co-IP; HeLa cells expressing GFP-tagged Pxt1 constructs with transiently expressed HA-Bak or HA-Bax, or with endogenous Bak/Bax; 20 μM z-VAD-fmk before transfection; lysis in 50 mM Tris–HCl pH 7.5, 150 mM NaCl, 0.5% Triton X-100, 1 mM EDTA; anti-GFP or anti-HA antibody overnight at 4°C, protein G agarose; immunoblotting
T2 sequence: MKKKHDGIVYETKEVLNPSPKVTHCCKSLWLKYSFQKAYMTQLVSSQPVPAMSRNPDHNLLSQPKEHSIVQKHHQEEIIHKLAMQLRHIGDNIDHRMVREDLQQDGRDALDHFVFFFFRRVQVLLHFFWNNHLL

B1: synthetic mouse Pxt1(1–18) peptide (peptide, UniProt Q8K459 1-18)
peptide: MQLRHIGDSVNHRVIQEH
binding [1]: no binding (tested: 0.8 mM peptide titrated into 80 μM Bak)

binding [2]: no binding | binding [3]: no binding
B2: C-terminal His6-tagged human Bak (residues 23–185;C166S) (domain or fragment, UniProt Q16611 23-185)
chain: T1 sequence

B3: synthetic human Pxt1(84–101) peptide (peptide, UniProt Q8NFP0 84-101)
peptide: MQLRHIGDNIDHRMVRED
binding [1]: no binding (tested: 0.8 mM peptide titrated into 80 μM Bak)

binding [4]: binds
B4: HA-tagged full-length Bak (Bcl-2 antagonist/killer), transiently expressed (protein, UniProt Q16611 1-211)
chain: MASGQGPGPPRQECGEPALPSASEEQVAQDTEEVFRSYVFYRHQQEQEAEGVAAPADPEMVTLPLQPSSTMGQVGRQLAIIGDDINRRYDSEFQTMLQHLQPTAENAYEYFTKIATSLFESGINWGRVVALLGFGYRLALHVYQHGLTGFLGQVTRFVVDFMLHHCIARWIAQRGGWVAALNLGNGPILNVLVVLGVVLLGQFVVRRFFKS

binding [4]: binds
B5: endogenous Bak of HeLa cells (protein, UniProt Q16611 1-211)
chain: B4 chain

— article PMC10298792
